The values below come from patent US10786451B2, “Process for preparing a dry powder formulation comprising an anticholinergic, a corticosteroid and a beta-adrenergic” (CHIESI FARMACEUTICI S.P.A., priority 2015, dated 2020).

The nature of series [1]: Uniformity of distribution of the active ingredients in the blend (12 samples, HPLC). The class given is physicochemical. As to the method: In the context of the present application the flow properties were tested by measuring the flow rate through an orifice according to the method described in the European Pharmacopeia (Eur. Ph.) 8.6, 8th Edition, which is incorporated herein by reference in its entirety. […] It is usually determined according to known methods, for instance by taking samples from different parts of the powder and testing the component by HPLC or other equivalent analytical methods. The uniformity of distribution of the active ingredients was evaluated by withdrawing 12 samples from different parts of the blend and evaluated by HPLC.

The nature of series [2]: Particle size (volume diameter) by laser diffraction, Malvern apparatus. The following applies: micronized material as used. The class given is physicochemical. As to the method:
The size of the particles active is determined by measuring the characteristic equivalent sphere diameter, known as volume diameter, by laser diffraction. In the reported examples, the volume diameter has been determined using a Malvern apparatus. However, other equivalent apparatus may be used by the skilled person in the art.

Structures can show the parent of a compound that is named as a salt.

On to `COc1ccc(CC(C)NCC(O)c2ccc(O)c(NC=O)c2)cc1` (centres unmarked) [FF, formoterol fumarate dihydrate], for which, in series [1] (powder formulation of Example 2 (6 μg FF, 100 μg BDP, 12.5 μg GB per 10 mg carrier), mean value, RSD in next column), the Uniformity of distribution worked out at 99.4. Also, in series [1] (powder formulation of Example 3 (6 μg FF, 100 μg BDP, 25 μg GB per 10 mg carrier)), the Uniformity of distribution stood at 99.6. Besides, in series [2], the “particle size d(v0.1)” value is 0.9 micron, the “particle size d(v0.5)” value is listed as 2.3 micron and the “particle size d(v0.9)” value stood at 4.2 micron.
